Source: patent US7728105B2, “Peptides impairing PBX dependent gene regulation” (St. George's Hospital Medical School, priority 2002, dated 2010)

Key:
[1] = test system: KG1a, HL60 and U937 leukaemic cell lines; test: Growth of leukaemic cell lines over 48 hours (Example 3); format: cell-based, human
Method: KG1a, HL60 and U937 cell lines were seeded as described in Example 1.
All cell lines were grown with HXP peptide (20 μg/ml) or CXP (20 μg/ml). Cell lines were cultured for various time points at 37° C., 5% CO2 in humidified atmosphere and enumerated at various time points.

CD133+ cells = test: CD133+ cell proliferation in cytokine supplemented liquid culture over 18 days; format: cell-based, human
Method: CD133+ cells (another name for AC133+ cells) were seeded in duplicate at 4×10^4 cells/ml in IMDM (Life Technologies), 10% FCS (Sigma Aldrich) and gentamycin (50 μg/ml Life Technologies) and Thrombopoietin (TPO) 10 ng/ml, Flt3-Ligand (FL) 50 ng/ml & c-KitL (K) 20 ng/ml), all obtained from R and D systems Ltd., UK. (Forraz et al., 2002). The HXP peptide (N-term: WYPWMKKHHRQIKIWFQNRRMKWKK: C-term; Eurogentec, Belgium) and control CXP peptide (N-term: WCCLADRHGRQIKIWFQNRRMKWKK: C-term; Eurogentec, Belgium) were added to culture medium at a concentration of 20 μg/ml. To withdraw peptides from culture, cells were washed twice in IMDM or RPMI and reseeded at prewash cell densities. Primary cells were cultured for 3 weeks at 37° C., 5% CO2 in humidified atmosphere and enumerated by a […] exclusion method with a heamocytometer.

Substance	cellular morphology and integrity [1]	cellular morphology and integrity (CD133+ cells)
WYPWMKKHHRQIKIWFQNRRMKWKK [HXP peptide]	no apparent change	no apparent change
WCCLADRHGRQIKIWFQNRRMKWKK (WCCLADRHGRQIKIWFQNRRMKWKK) [CXP, reference compound]	no apparent change	no apparent change
